{
  "source": "paper PMC4981888",
  "target": "Survivin, endogenous (human (endogenous in MDA-MB-231)) (UniProt O15392)",
  "assay": "co-IP; endogenous SVV precipitated from 1 mg crude MDA-MB-231 lysate (0.5% NP-40 in PBS) with anti-SVV antibody D-8 and protein G sepharose, 4 °C; lysate with no nanobody or pre-incubated with 5 μg GFPNb or SVVNb8; Western blot",
  "note": "Results are given in words; binding and its absence hold for the method and conditions named. In cells and extracts the contact can be indirect. Some binding calls cover weakened binding; strength is not graded here.",
  "data": [
    {"substance": "Hsp90AA1, endogenous (from UniProt P07900 1-732)", "values": [
      {"measurement": "binding", "result": "binds"}
    ]}
  ]
}
